Test results published in publication doi:10.1101/2025.03.24.645063.
No constants are given. Whether binding was seen depends on the method and setting.

Amino acid sequences for entries named in this document (tags omitted). A change or cut given only in a name is not applied to a line headed by its entry.
UniProt Q96SW2: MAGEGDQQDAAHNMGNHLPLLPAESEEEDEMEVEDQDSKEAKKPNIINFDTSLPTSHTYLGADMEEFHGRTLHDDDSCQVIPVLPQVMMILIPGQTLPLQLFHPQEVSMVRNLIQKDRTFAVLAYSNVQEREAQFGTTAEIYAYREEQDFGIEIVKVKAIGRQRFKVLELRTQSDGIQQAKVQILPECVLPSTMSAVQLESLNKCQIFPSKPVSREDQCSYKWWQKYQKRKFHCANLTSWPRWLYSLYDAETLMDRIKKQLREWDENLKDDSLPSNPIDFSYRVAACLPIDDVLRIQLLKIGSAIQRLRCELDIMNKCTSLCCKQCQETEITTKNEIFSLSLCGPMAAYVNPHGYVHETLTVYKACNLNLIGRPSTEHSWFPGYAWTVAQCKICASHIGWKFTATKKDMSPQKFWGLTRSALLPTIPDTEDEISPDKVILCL

Target: CRBN/DDB1 complex (UniProt Q96SW2)
Assay: FRET or BRET; TR-FRET displacement: 20 nM CoraFluor-1-labeled CRBN/DDB1 and 200 nM thal-FITC tracer; UROD reaction mixtures (with PCMT1 or PCMT1 S60A, 17.5 h) titrated 1:3; 25 mM HEPES, 150 mM NaCl, 0.5 mg/mL BSA, 0.005% TWEEN 20, pH 7.5; read after 2 h; both purified

binding: no binding
B1: UROD N367A (protein, UniProt P06132 1-367)
chain: MEANGLGPQGFPELKNDTFLRAAWGEETDYTPVWCMRQAGRYLPEFRETRAAQDFFSTCRSPEACCELTLQPLRRFPLDAAIIFSDILVVPQALGMEVTMVPGKGPSFPEPLREEQDLERLRDPEVVASELGYVFQAITLTRQRLAGRVPLIGFAGAPWTLMTYMVEGGGSSTMAQAKRWLYQRPQASHQLLRILTDALVPYLVGQVVAGAQALQLFESHAGHLGPQLFNKFALPYIRDVAKQVKARLREAGLAPVPMIIFAKDGHFALEELAQAGYEVVGLDWTVAPKKARECVGKTVTLQGNLDPCALYASEEEIGQLVKQMLDDFGPHRYIANLGHGLYPDMDPEHVGAFVDAVHKHSRLLRQA
